From PubChem BioAssay AID540276 (National Center for Advancing Translational Sciences (NCATS), 2011)
“And” between values parts separate entries of the source, which are not always exact repeats. Equal values may be shown once. Out of some 300,000 compounds screened, about 5,400 (1.8%) were called active. The shares of active, inactive and inconclusive entries below differ from those in the screen. The call rests on the fitted dose curve; tested in HEK293 cells. Where the call is inconclusive, the potency comes from a doubtful curve fit.

Test: qHTS for inhibitors of binding or entry into cells for Marburg Virus
Conditions: Marburg virus pseudotyped entry inhibition, cell reporter; series mostly up to 37.8 µM
Potency means the concentration at half of the fitted maximal effect.

Question: With O=C(CCc1nc2ccccc2s1)OCC(=O)c1ccccc1 as the molecule, how does the Potency read?
Answer: Its Potency is “inactive”.

Question: With Cc1cc(NS(=O)(=O)c2ccc(N3C(=O)C4C5C=CC(C5)C4C3=O)cc2)nc(C)n1 (stereo not given) as the molecule, how does the Potency read?
Answer: The Potency was “inactive”.

Question: For CCC(Oc1ccccc1)C(=O)NCCOC (stereo not given), which Potency is on record?
Answer: The Potency was inconclusive: 1.26 µM [activator, partial curve, poor fit].

Question: With CC(=O)c1ccc(NC(=O)CSc2nnc(C3CC3)n2C)cc1 as the molecule, how does the Potency read?
Answer: The Potency was “inactive”.

Question: For COc1ccc([C@]23Cc4cc(OC)c(OC)cc4C(O2)c2c(cc(C)n(Cc4ccccc4)c2=O)O3)cc1, which Potency is on record?
Answer: Its Potency is inconclusive: 1.19 µM [activator, partial curve, poor fit].

Question: Which Potency does the source give for CSCCC(=O)N1CCCC(CNC(=O)c2ccccc2Cl)C1 (stereo not given) here?
Answer: Its Potency is inconclusive: 8.91 µM [activator, single point].

Question: For O=C(CN1CCOCC1)N1CCc2ccccc2C(c2ccccc2)C1 (stereo not given), which Potency is on record?
Answer: The Potency was inconclusive: 0.282 µM [inhibitor, full curve, poor fit].

Question: With Cc1ccccc1-c1cc2nc(C)c(Cl)c(=O)n2[nH]1 as the molecule, how does the Potency read?
Answer: Its Potency is active: 12.6 µM.

Question: With Cc1nnc(SCC(=O)Nc2nccs2)n1C(C)C as the molecule, how does the Potency read?
Answer: Its Potency is “inactive”.

Question: For Cc1ccccc1NC(=O)C1CCN(S(=O)(=O)c2c(C)noc2/C=C/c2ccco2)CC1, which Potency is on record?
Answer: The Potency was “inactive”.

Question: For CCN(CC)CCN1C(=O)C(O)=C(C(=O)c2sc(C)nc2C)C1c1cccnc1 (stereo not given), which Potency is on record?
Answer: Its Potency is inconclusive: 0.0058 µM [inhibitor, full curve, poor fit].

Question: Which Potency does the source give for COc1ccc(/C=C2\SC(=S)N(CCCC(=O)Nc3ccc(C(=O)O)cc3)C2=O)cc1OC here?
Answer: Its Potency is “inactive”.

Question: Which Potency does the source give for CCOc1cccc(CN2CCCC(N3CCc4ccccc4C3)C2)c1O (stereo not given) here?
Answer: The Potency was inconclusive: 17.8 µM [inhibitor, partial curve, poor fit].

Question: Which Potency does the source give for O=C(Cn1cc(/C=N/NC(=O)c2cccc(C(F)(F)F)c2)c2ccccc21)Nc1ccc(F)cc1 here?
Answer: The Potency was inconclusive: 10.3 µM [inhibitor, partial curve, poor fit].

Question: For Cc1ccc(NC(=O)N2CCN(S(=O)(=O)c3ccccc3)CC2)cc1, which Potency is on record?
Answer: The Potency was inconclusive: 2.82 µM [activator, partial curve, poor fit].

Question: Which Potency does the source give for C=C(CN(C)C)C(=O)c1ccc(OC2OC(COC(C)=O)C(OC(C)=O)C(OC(C)=O)C2OC(C)=O)cc1 (stereo not given) here?
Answer: The Potency was inconclusive: 15.8 µM [inhibitor, partial curve].

Question: For O=C(CN1C(=O)NC2(CCCC2)C1=O)N1CCc2ccccc2C1, which Potency is on record?
Answer: Its Potency is inconclusive: 1.12 µM [activator, full curve, poor fit].

Question: Which Potency does the source give for COc1ccccc1-c1cn(S(=O)(=O)c2ccc(F)cc2)nc1N here?
Answer: Its Potency is inconclusive: 12.6 µM [inhibitor, partial curve, poor fit].

Question: Which Potency does the source give for CS(=O)(=O)c1cccc(C(=O)Nc2ccc3c(c2)OCCCO3)c1 here?
Answer: Its Potency is inconclusive: 3.55 µM [activator, single point].

Question: For Cc1cccc(NS(=O)(=O)c2cccc(C(=O)N3CCN(S(=O)(=O)c4ccccc4)CC3)c2)c1, which Potency is on record?
Answer: Its Potency is inconclusive: 14.1 µM [inhibitor, single point].

Question: Which Potency does the source give for Cc1cc(NC(=O)C(C)Sc2nc(-c3cccs3)nc3ccccc23)no1 (stereo not given) here?
Answer: The Potency was inconclusive: 25.1 µM [inhibitor, single point].

Question: For CCC(=O)N1CCc2cc(Br)cc(S(=O)(=O)Nc3ccccc3C(=O)OC)c21, which Potency is on record?
Answer: Its Potency is inconclusive: 3.16 µM [inhibitor, single point].

Question: With COCCCNC(=O)c1cc2c(-c3cccc(OC)c3)nn(C)c2s1 as the molecule, how does the Potency read?
Answer: The Potency was inconclusive: 35.5 µM [inhibitor, single point] and inconclusive: 8.91 µM [inhibitor, partial curve, poor fit].

Question: With CN(C)c1ccc(NC(=O)Oc2ccccc2)cc1 as the molecule, how does the Potency read?
Answer: The Potency was “inactive”.

Question: Which Potency does the source give for COc1ccc(NC(=O)N2CCc3cc(OC)c(OC)cc3C2)cc1 here?
Answer: Its Potency is inconclusive: 35.5 µM [inhibitor, partial curve, poor fit].

Question: With COC(=O)c1ccc(CSc2nnc(NC(=O)c3cc4c(s3)CCCC4)s2)cc1 as the molecule, how does the Potency read?
Answer: Its Potency is “inactive”.

Question: Which Potency does the source give for COc1cc(OC)c(NC(=O)c2cnn(-c3ccccc3)c2-n2cccc2)cc1Cl here?
Answer: The Potency was “inactive”.

Question: For COCCCn1cnc2oc3nc4ccccc4nc3c2c1=O, which Potency is on record?
Answer: Its Potency is inconclusive: 2.24 µM [activator, partial curve].

Question: For CCOc1cc(-c2nc(-c3ccc(-c4ccccc4)nc3OCC)no2)cc(OCC)c1OCC, which Potency is on record?
Answer: Its Potency is “inactive”.

Question: For C/C(CC(=O)Nc1ccccc1-c1ccccc1)=N\NC(=O)COc1ccc(C)cc1Br, which Potency is on record?
Answer: The Potency was inconclusive: 35.5 µM [inhibitor, partial curve, poor fit].

Question: Which Potency does the source give for COc1ccc(C(=O)Nc2ccc(C)cc2C(=O)c2ccccc2)c(OC)c1 here?
Answer: The Potency was “inactive”.

Question: With O=C(O)Cc1c(-c2ccccc2)c2cc(Cl)ccc2[nH]c1=O as the molecule, how does the Potency read?
Answer: The Potency was inconclusive: 1.26 µM [activator, full curve, poor fit].

Question: For O=C(N[C@@H]1CCS(=O)(=O)C1)N1CCCCC1, which Potency is on record?
Answer: Its Potency is inconclusive: 0.316 µM [inhibitor, full curve, poor fit].

Question: For CC1CCC/C(=N\NC(=S)Nc2ccccc2)C1 (stereo not given), which Potency is on record?
Answer: The Potency was inconclusive: 0.259 µM [activator, full curve].

Question: With COc1ccc(-c2nc(C(=O)Nc3cccc(C(C)=O)c3)nn2-c2ccccc2Cl)cc1 as the molecule, how does the Potency read?
Answer: Its Potency is inconclusive: 14.1 µM [activator, partial curve, poor fit].

Question: Which Potency does the source give for CCOc1ncccc1C(=O)Nc1ccc(C)cn1 here?
Answer: The Potency was inconclusive: 31.6 µM [activator, single point].

Question: Which Potency does the source give for CCOC(=O)c1c(C)[nH]c(C(=O)COC(=O)/C=C/c2cccc(OC)c2OC)c1C here?
Answer: Its Potency is inconclusive: 17.8 µM [activator, single point].

Question: Which Potency does the source give for CCCCCn1c(CCCNC(=O)c2ccc(Cl)cc2)nc2ccccc21 here?
Answer: Its Potency is inconclusive: 35.5 µM [inhibitor, partial curve, poor fit].

Question: For NS(=O)(=O)c1ccc(O)c(NC(=O)c2ccc([N+](=O)[O-])o2)c1, which Potency is on record?
Answer: Its Potency is inconclusive: 35.5 µM [inhibitor, single point].

Question: Which Potency does the source give for CN(C)S(=O)(=O)c1ccc(NC(=O)C2CCCN(C(=O)c3ccc(Cl)cc3)C2)cc1 (stereo not given) here?
Answer: The Potency was “inactive”.

Question: With CC(=O)Nc1ccc(-c2csc(NC(C)c3ccccc3)n2)cc1 (stereo not given) as the molecule, how does the Potency read?
Answer: Its Potency is inconclusive: 3.16 µM [activator, single point].

Question: For CCOC(=O)/C=c1\s/c(=C(\C#N)C(=O)NC)n(-c2ccccc2)c1=O, which Potency is on record?
Answer: The Potency was inconclusive: 0.0058 µM [inhibitor, full curve, poor fit].

Question: With COC(=O)C1=C(C)N(C(C)C)C(=O)C1(NC(=O)c1ccccc1OC)C(F)(F)F (stereo not given) as the molecule, how does the Potency read?
Answer: Its Potency is inconclusive: 12.6 µM [inhibitor, single point].

Question: With CCOC(=O)c1cc2c(=O)n3ccccc3nc2n(C)c1=NC(=O)c1c(-c2c(F)cccc2Cl)noc1C as the molecule, how does the Potency read?
Answer: The Potency was “inactive and inconclusive: 1.12 µM [activator, partial curve, poor fit]”.

Question: With O=C(Cn1nc(-c2ccco2)ccc1=O)Nc1cc(C(F)(F)F)ccc1Cl as the molecule, how does the Potency read?
Answer: Its Potency is “inactive”.

Question: Which Potency does the source give for Nc1ncnc2c1nc(Br)n2C1O[C@H]2COP(=O)(O)O[C@@H]2C1O (stereo not given in full) here?
Answer: The Potency was active: 3.16 µM.

Question: For Cc1nc2ccc(-c3nc4cc(N)ccc4o3)cc2[nH]1, which Potency is on record?
Answer: The Potency was inconclusive: 18.3 µM [inhibitor, single point].

Question: For O=C(Nc1ccc(Br)c(Cl)c1)c1ccc(C(=O)Nc2ccc(Br)c(Cl)c2)cc1, which Potency is on record?
Answer: The Potency was “inactive”.

Question: With Cc1cccc(OCCc2c(C)[nH]c(=S)[nH]c2=O)c1 as the molecule, how does the Potency read?
Answer: The Potency was inconclusive: 35.5 µM [inhibitor, partial curve, poor fit].

Question: For CCOCCCn1c(=N)c(S(=O)(=O)c2ccc(C)cc2)cc2c(=O)n3cc(C)ccc3nc21, which Potency is on record?
Answer: Its Potency is inconclusive: 15.8 µM [activator, single point].

Question: With Cc1ccc(NC(=O)C2CCCN(C(=O)c3ccc(Cl)cc3)C2)cc1C (stereo not given) as the molecule, how does the Potency read?
Answer: The Potency was inconclusive: 31.6 µM [inhibitor, single point].

Question: For CN(C)N=Nc1ccc(-c2cn(Cc3ccccc3)cn2)cc1, which Potency is on record?
Answer: The Potency was inconclusive: 11.2 µM [inhibitor, partial curve, poor fit].

Question: Which Potency does the source give for O=C(N/N=C/c1ccco1)c1cc([N+](=O)[O-])cc([N+](=O)[O-])c1 here?
Answer: Its Potency is inconclusive: 12.6 µM [activator, single point].

Question: Which Potency does the source give for O=C(COc1ccccc1)NCC(c1ccc(Cl)cc1)N1CCCCC1 (stereo not given) here?
Answer: Its Potency is inconclusive: 5.62 µM [inhibitor, partial curve].

Question: With Cc1cc(C)c(NC(=O)C2CCCO2)c(C)c1NC(=O)C1CCCO1 (stereo not given) as the molecule, how does the Potency read?
Answer: The Potency was “inactive”.

Question: For CCn1cc(C(=O)NCc2ccncc2)c(=O)c2cc(F)c(N3CCN(C(=O)c4ccco4)CC3)cc21, which Potency is on record?
Answer: The Potency was “inactive”.

Question: With CCCc1ccc2oc(C(=O)NCCCN3CCOCC3)c(C)c2c1 as the molecule, how does the Potency read?
Answer: The Potency was inconclusive: 35.5 µM [inhibitor, single point].

Question: Which Potency does the source give for Fc1ccc(C(c2nnnn2C2CCCC2)N2CCc3ccccc32)cc1 (stereo not given) here?
Answer: Its Potency is inconclusive: 23.1 µM [inhibitor, partial curve, poor fit].

Question: For C=C(C)COc1ccc(-c2nc(N)ncc2Oc2ccccc2OC)c(O)c1, which Potency is on record?
Answer: Its Potency is inconclusive: 11.2 µM [inhibitor, single point].

Question: Which Potency does the source give for O=C(COC(=O)COc1ccccc1F)Nc1ccc(Cl)cn1 here?
Answer: Its Potency is “inactive”.

Question: Which Potency does the source give for C=CCC(=O)OCC(=O)Nc1ccc(Cl)cn1 here?
Answer: The Potency was “inactive”.

Question: With Cc1c([N+](=O)[O-])cc(C(=O)NCc2ccc(F)cc2)cc1[N+](=O)[O-] as the molecule, how does the Potency read?
Answer: The Potency was “inactive”.

Question: Which Potency does the source give for COc1ccc(-c2nnc(SCC(=O)NC(=O)NCc3ccccc3)o2)cc1 here?
Answer: Its Potency is inconclusive: 0.631 µM [inhibitor, partial curve, poor fit].

Question: For COc1ccc(-c2cc3ncc(C)n3c(Nc3ncccc3C(N)=O)n2)cc1OC, which Potency is on record?
Answer: The Potency was inconclusive: 1.64 µM [inhibitor, full curve].

Question: Which Potency does the source give for Cc1sc(NC(=O)c2ccccc2)c(C(c2ccc(Cl)cc2)N2CCN(CCO)CC2)c1C (stereo not given) here?
Answer: Its Potency is inconclusive: 15.8 µM [inhibitor, single point].
